Reference: the supplement of paper PMC11732987, “Enantioselective OTUD7B fragment discovery through chemoproteomics screening and high-throughput optimisation” (Communications Chemistry, 2025)
The list shows a part of the results. The data scatter; read single values as rough.

The chains behind the UniProt entries cited, without tags or fusion partners. Where a name states a change or a piece, a line headed by the entry shows the natural chain unless it says otherwise.
UniProt Q9H8M2: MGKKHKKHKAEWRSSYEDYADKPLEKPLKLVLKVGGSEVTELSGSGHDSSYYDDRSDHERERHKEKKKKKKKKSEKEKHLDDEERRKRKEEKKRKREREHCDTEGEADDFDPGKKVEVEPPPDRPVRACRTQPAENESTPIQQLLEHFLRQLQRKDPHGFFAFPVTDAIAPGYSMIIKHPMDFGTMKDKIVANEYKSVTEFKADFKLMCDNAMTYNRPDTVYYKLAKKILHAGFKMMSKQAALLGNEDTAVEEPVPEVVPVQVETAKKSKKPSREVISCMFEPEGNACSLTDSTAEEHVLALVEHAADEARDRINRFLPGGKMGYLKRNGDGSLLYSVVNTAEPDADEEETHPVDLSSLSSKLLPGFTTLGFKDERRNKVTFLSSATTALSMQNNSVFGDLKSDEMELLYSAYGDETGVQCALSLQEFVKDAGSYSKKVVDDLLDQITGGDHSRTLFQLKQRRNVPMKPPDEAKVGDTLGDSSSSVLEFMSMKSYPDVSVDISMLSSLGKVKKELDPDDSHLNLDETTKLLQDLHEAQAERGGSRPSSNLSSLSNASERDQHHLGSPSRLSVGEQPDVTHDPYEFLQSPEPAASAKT
UniProt Q8IYL3: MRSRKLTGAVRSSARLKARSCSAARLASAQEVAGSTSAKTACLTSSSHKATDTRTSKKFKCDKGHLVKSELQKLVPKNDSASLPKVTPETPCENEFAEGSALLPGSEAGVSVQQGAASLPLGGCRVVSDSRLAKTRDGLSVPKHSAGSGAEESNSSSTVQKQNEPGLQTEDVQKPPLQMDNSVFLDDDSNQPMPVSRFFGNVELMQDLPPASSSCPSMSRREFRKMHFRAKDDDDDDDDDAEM
UniProt P38398: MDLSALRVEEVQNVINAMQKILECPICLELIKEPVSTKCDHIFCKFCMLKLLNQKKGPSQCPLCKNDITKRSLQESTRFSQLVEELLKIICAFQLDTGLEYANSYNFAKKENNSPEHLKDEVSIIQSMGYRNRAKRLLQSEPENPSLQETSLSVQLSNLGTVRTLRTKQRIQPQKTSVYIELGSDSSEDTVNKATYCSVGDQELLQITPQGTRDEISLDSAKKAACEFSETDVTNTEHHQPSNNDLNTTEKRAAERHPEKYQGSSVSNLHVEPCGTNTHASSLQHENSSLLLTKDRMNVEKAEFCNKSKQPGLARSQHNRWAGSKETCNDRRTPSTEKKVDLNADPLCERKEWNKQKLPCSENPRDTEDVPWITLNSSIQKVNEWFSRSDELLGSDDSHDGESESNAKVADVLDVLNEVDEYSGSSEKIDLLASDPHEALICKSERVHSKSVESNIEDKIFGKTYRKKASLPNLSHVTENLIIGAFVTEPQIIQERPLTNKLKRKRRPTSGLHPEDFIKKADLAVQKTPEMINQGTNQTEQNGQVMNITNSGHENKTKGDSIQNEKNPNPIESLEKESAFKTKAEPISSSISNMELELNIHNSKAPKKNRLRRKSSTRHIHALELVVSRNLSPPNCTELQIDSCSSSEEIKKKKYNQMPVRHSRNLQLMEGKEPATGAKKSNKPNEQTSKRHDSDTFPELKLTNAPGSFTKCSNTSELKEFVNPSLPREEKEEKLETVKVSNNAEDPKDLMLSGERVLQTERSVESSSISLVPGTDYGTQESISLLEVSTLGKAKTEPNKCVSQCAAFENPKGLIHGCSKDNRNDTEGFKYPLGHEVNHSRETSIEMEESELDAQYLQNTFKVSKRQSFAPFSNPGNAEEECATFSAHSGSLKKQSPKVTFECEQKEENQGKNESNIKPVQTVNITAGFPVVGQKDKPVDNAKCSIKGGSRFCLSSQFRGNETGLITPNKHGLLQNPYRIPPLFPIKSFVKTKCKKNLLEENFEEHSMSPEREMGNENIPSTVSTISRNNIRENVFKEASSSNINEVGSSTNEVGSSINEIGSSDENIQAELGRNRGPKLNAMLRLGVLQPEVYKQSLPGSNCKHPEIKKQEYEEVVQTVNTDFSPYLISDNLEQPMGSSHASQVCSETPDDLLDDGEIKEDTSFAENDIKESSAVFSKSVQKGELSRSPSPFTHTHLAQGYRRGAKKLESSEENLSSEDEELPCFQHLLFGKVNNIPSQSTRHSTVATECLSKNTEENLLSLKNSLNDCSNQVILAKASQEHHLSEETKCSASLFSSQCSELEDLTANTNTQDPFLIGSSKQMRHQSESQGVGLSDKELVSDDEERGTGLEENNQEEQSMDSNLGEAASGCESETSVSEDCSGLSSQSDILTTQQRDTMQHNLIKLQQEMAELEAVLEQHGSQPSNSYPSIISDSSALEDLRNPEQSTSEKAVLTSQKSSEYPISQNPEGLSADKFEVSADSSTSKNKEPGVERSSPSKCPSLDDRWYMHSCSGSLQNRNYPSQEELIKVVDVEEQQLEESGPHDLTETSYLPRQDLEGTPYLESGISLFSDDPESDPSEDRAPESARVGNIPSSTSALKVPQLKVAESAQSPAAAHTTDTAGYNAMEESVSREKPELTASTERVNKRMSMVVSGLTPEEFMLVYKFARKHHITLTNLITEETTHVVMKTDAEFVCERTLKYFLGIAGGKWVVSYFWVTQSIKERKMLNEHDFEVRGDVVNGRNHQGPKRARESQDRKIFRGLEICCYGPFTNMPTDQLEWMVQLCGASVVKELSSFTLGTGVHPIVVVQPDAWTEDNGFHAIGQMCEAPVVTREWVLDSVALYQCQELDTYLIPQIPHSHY

Legend:
[1] = compound: ClCC(=O)N[C@@H]1CCCc2ccccc12; assay: log2 mean competition ratio of IA-DTB cysteine labelling (DMSO/compound) (log2 ratio); higher = stronger cysteine engagement by compound; details: treatment time: 4 h, cell line lysate: HEK293T
Procedure: (§1)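 IA-DTB competitive cysteine chemoproteomics in HEK293T RIPA lysate. Lysates were treated with compound 29 or 30 at 50 or 200 µM for 4 h, then IA-DTB (500 µM, 1 h), trypsin-digested, NeutrAvidin-enriched and analysed by diaPASEF. Competition ratio = intensity DMSO / intensity compound (n=4 treated, n=64 DMSO); binding: mean log2 CR ≥ 1 and p ≤ 0.05 plus QC filters. Target is the cysteine site.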

[2] = compound: ClCC(=O)N[C@H]1CCCc2ccccc12; assay: as above; details: treatment time: 4 h, cell line lysate: HEK293T
Procedure: as §1

Target | log2 mean competition ratio ([1]; 50 µM) | log2 mean competition ratio ([1]; 200 µM) | log2 mean competition ratio ([2]; 50 µM) | log2 mean competition ratio ([2]; 200 µM)
BRD9 C101 (UniProt Q9H8M2) | -0.34 | 0.0129 | -0.358 | -0.325
C1orf174 C42 (UniProt Q8IYL3) | 0.577 | -0.361 | 0.285 | -0.247
BRCA1 C903 (UniProt P38398) | -0.0396 | 0.0704 | -0.194 | 0.166
